Results: US20150353597A1 (TEXAS A AND M UNIVERSITY SYSTEM, published 2015)

Legend:
[1] = target: C*-MBP (construct 10); assay: co-precipitation with ELP-N by ammonium sulfate
[2] = target: T1, C*-β-Gal (construct 8) (Escherichia coli (strain K12), UniProt P00722 1-1024 = β-galactosidase); assay: lysates mixed 10 min at room temperature, 0.4 M ammonium sulfate precipitation of the ELP complex, SDS-PAGE
T1 construct: also called C*-β-galactosidase

B1: ELP-N (construct 5) (other)
chain: MGHGVGVPGVGVPGGGVPGAGVPGVGVPGVGVPGVGVPGGGVPGAGVPGGGVPGVGVPGVGVPGGGVPGAGVPGVGVPGVGVPGVGVPGGGVPGAGVPGGGVPGVGVPGVGVPGGGVPGAGVPGVGVPGVGVPGVGVPGGGVPGAGVPGGGVPGVGVPGVGVPGGGVPGAGVPGVGVPGVGVPGVGVPGGGVPGAGVPGGGVPGVGVPGVGVPGGGVPGAGVPGVGVPGVGVPGVGVPGGGVPGAGVPGGGVPGVGVPGVGVPGGGVPGAGVPGVGVPGVGVPGVGVPGGGVPGAGVPGGGVPGVGVPGVGVPGGGVPGAGVPGVGVPGVGVPGVGVPGGGVPGAGVPGGGVPGVGVPGVGVPGGGVPGAGVPGVGVPGVGVPGVGVPGGGVPGAGVPGGGVPGVGVPGVGVPGGGVPGAGVPGVGVPGVGVPGVGVPGGGVPGAGVPGGGVPGVGVPGVGVPGGGVPGAGVPGVGVPGVGVPGVGVPGGGVPGAGVPGGGVPGVGVPGVGVPGGGVPGAGVPGVGVPGVGVPGVGVPGGGVPGAGVPGGGVPGGLVSSNNNNNNNNNNLGIEGRISEFGGGGSGGGGSASCLSYETEILTVEYGLLPIGKIVEKRIECTVYSVDNNGNIYTQPVAQWHDRGEQEVFEYCLEDGSLIRATKDHKFMTVDGQMLPIDEIFERELDLMRVDNLPNLEHHHHHH
notes: also called ELP intein N-fragment
B1: binds [1]; binds [2].
